Results taken from PubChem BioAssay AID276 (DTP/NCI, 2004).
The list is a part of this screen's results and no random one: it gathers tests that were run many times, whatever their T/C, doses with no T/C, and many T/C values between a quarter and a half above the control. Further doses and runs are listed elsewhere. T/C gives the treated animals as a percentage of the vehicle group. Some doses have a count of surviving animals in place of a T/C: the source files T/C as zero there, which appears to mark a toxic dose or a test without result, not a measured value. Some survivor counts are full or nearly so, which does not show that the dose was tolerated: the source hardly ever lists a survival T/C far under the control, and the zero likely stands for such cases as well. Survivors were counted at the toxicity check, usually on the fifth day, unless a day is given; later deaths do not show. Schedule codes are those of the source, taken here to give the interval after Q, in days (D) or hours (H), and the number of doses after X. Some doses were run more than once; the values are given in rising order. Where survival is the endpoint, this PubChem deposit counts one and a half times the control or more as active, and values a quarter to a half above the control carry no call in these data; other NCI protocols may use other cut-offs. Some T/C values carry the count of animals alive at the toxicity check (mostly the fifth day); without a count, all were alive then.

Tested on: B6C3F1 mice, Lewis lung carcinoma iv, survival T/C
Experiment: NCI In Vivo Anticancer Drug Screen. Data for tumor model Lewis Lung Carcinoma (intravenous) in B6C3F1 mice
Details: T/C endpoint: median survival time, schedule: Q01DX009 (ip), higher T/C = longer survival
Procedure, shortened: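 Antitumor activity is assessed in tumor-bearing mice by comparing survival after compound treatment against vehicle-treated controls, reported as a T/C ratio.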

[1] = dose: 50.0 mg/kg/injection, vehicle: Klucel (hydroxypropylcellulose) (HPC)
[2] = dose: 100.0 mg/kg/injection, vehicle: saline with Tween-80
[3] = dose: 8.0 mg/kg/injection, vehicle: saline
[4] = dose: 16.0 mg/kg/injection, vehicle: saline
[5] = dose: 100.0 mg/kg/injection, vehicle: Klucel (hydroxypropylcellulose) (HPC)
[6] = dose: 200.0 mg/kg/injection, vehicle: Klucel (hydroxypropylcellulose) (HPC)
[7] = dose: 200.0 mg/kg/injection, vehicle: saline with Tween-80
[8] = dose: 25.0 mg/kg/injection, vehicle: water
[9] = dose: 50.0 mg/kg/injection, vehicle: water
[10] = dose: 100.0 mg/kg/injection, vehicle: water
[11] = dose: 50.0 mg/kg/injection, vehicle: saline with Tween-80
[12] = dose: 50.0 mg/kg/injection, vehicle: saline
[13] = dose: 25.0 mg/kg/injection, vehicle: saline
[14] = dose: 6.25 mg/kg/injection, vehicle: water
[15] = dose: 400.0 mg/kg/injection, vehicle: Klucel (hydroxypropylcellulose) (HPC)
[16] = dose: 4.0 mg/kg/injection, vehicle: saline
[17] = dose: 12.5 mg/kg/injection, vehicle: water
[18] = dose: 400.0 mg/kg/injection, vehicle: saline with Tween-80

**Q.** Which T/C (dose: 12.5 mg/kg/injection, vehicle: Klucel (hydroxypropylcellulose) (HPC)) does the source give for `COC12C(COC(=O)NCCO)C3=C(C(=O)C(C)=C(N)C3=O)N1CC1NC12` (configuration not stated) here?
**A.** 132 % of control

**Q.** And the survivor count (dose: 25.0 mg/kg/injection, vehicle: Klucel (hydroxypropylcellulose) (HPC))?
**A.** 10 of 10

**Q.** And the survivor count [1]?
**A.** 10 of 10

**Q.** Which survivor count [2] does the source give for `CNC(=O)n1c(N)nc(-c2ccccc2)c1-c1ccccc1` here?
**A.** 2 of 10

**Q.** With `O=NN(CCF)C(=O)NC1C(O)CCCC1O` (configuration not stated) as the compound, how does the T/C (dose: 5.0 mg/kg/injection, vehicle: saline) read?
**A.** 142 % of control

**Q.** What about the survivor count (dose: 40.0 mg/kg/injection, vehicle: saline) of the same compound?
**A.** 0 of 10 on day 9

**Q.** Which survivor count [3] does the source give for `O=C1C(NCC(O)CO)=C(N2CC2)C(=O)C(NCC(O)CO)=C1N1CC1` (configuration not stated) here?
**A.** 9 of 9

**Q.** And the survivor count [4]?
**A.** 10 of 10

**Q.** `CC(C)NC(=O)N(CCCCBr)N=O` was tested. Which survivor count [5] did it give?
**A.** 10 of 10

**Q.** And the survivor count [6]?
**A.** 10 of 10

**Q.** With `NS(=O)(=O)OCCCCCCCOS(N)(=O)=O` as the compound, how does the survivor count [2] read?
**A.** 10 of 10

**Q.** What about the survivor count [7] of the same compound?
**A.** 10 of 10

**Q.** Which survivor count (dose: 100.0 mg/kg/injection, vehicle: saline) does the source give for `Cn1/c2cc/c1=C(\c1ccc(S(=O)(=O)O)cc1)c1ccc([n-]1)/C(c1ccc(S(=O)(=O)O)cc1)=c1/cc/c([nH]1)=C(\c1ccc(S(=O)(=O)O)cc1)c1ccc([n-]1)/C=2c1ccc(S(=O)(=O)O)cc1.O.O=S(=O)(O)C(F)(F)F.[Cu+2]` here?
**A.** 7 of 10

**Q.** What about the survivor count (dose: 200.0 mg/kg/injection, vehicle: saline) of the same compound?
**A.** 2 of 10

**Q.** `COc1cccc2c1C(=O)c1c(O)c3c(c(O)c1C2=O)C[C@@](O)(/C(C)=N\O)C[C@@H]3OC1CC(N)C(O)C(C)O1` (some centres not stated) was tested. Which survivor count [8] did it give?
**A.** 9 of 9

**Q.** And the survivor count [9]?
**A.** 3 of 10

**Q.** How did the survivor count [10] turn out when `NC(CNC(=O)CBr)C(=O)O` (configuration not stated) was run?
**A.** 3 of 10

**Q.** With `C[n+]1cccc(NC(=O)c2ccc(NC(=O)C34CCC(C(=O)Nc5ccc(C(=O)Nc6ccc[n+](C)c6)cc5)(CC3)CC4)cc2)c1` as the compound, how does the survivor count (dose: 20.0 mg/kg/injection, vehicle: saline with Tween-80) read?
**A.** 8 of 10

**Q.** What about the survivor count (dose: 40.0 mg/kg/injection, vehicle: saline with Tween-80) of the same compound?
**A.** 8 of 10

**Q.** What about the survivor count (dose: 80.0 mg/kg/injection, vehicle: saline with Tween-80) of the same compound?
**A.** 0 of 10

**Q.** What about the survivor count (dose: 160.0 mg/kg/injection, vehicle: saline with Tween-80) of the same compound?
**A.** 0 of 10

**Q.** `Nc1nnc[se]1` was tested. Which T/C (dose: 25.0 mg/kg/injection, vehicle: saline with Tween-80) did it give?
**A.** 135 % of control

**Q.** And the survivor count [11]?
**A.** 10 of 10

**Q.** And the survivor count [2]?
**A.** 9 of 10

**Q.** Which results are given for `CCC1=C2C(=O)c3ccccc3C2=C(C)S(=O)(=O)O1`?
**A.** survivor count [11]: 3 of 10; survivor count [2]: 0 of 10

**Q.** Which survivor count [12] does the source give for `COC(=O)Nc1nc2ccc(C3(c4ccc(F)cc4)OCCO3)cc2[nH]1` here?
**A.** 9 of 10

**Q.** With `COc1cc2c(c(OC)c1OC)-c1ccc(OC)c(=O)cc1[C@@H](NC(C)=O)CC2` as the compound, how does the survivor count (dose: 1.56 mg/kg/injection, vehicle: saline) read?
**A.** 2 of 10

**Q.** And the survivor count (dose: 1.57 mg/kg/injection, vehicle: saline)?
**A.** 2 of 10

**Q.** What about the survivor count (dose: 3.13 mg/kg/injection, vehicle: saline) of the same compound?
**A.** 0 of 10

**Q.** And the survivor count (dose: 6.25 mg/kg/injection, vehicle: saline)?
**A.** 0 of 10

**Q.** What about the survivor count (dose: 12.5 mg/kg/injection, vehicle: saline) of the same compound?
**A.** 0 of 10

**Q.** And the survivor count [13]?
**A.** 0 of 10

**Q.** What about the survivor count [12] of the same compound?
**A.** 0 of 10

**Q.** With `COc1cc(NCc2ccc3nc(N)nc(N)c3c2C)cc(OC)c1OC` as the compound, how does the survivor count [14] read?
**A.** 9 of 9

**Q.** And the survivor count [10]?
**A.** 10 of 10

**Q.** And the survivor count (dose: 200.0 mg/kg/injection, vehicle: water)?
**A.** 0 of 10

**Q.** `CNC(=O)/C=C/C1=CN2C(=O)c3ccc(C)c(O)c3NC(OC)C2C1` (configuration not stated) was tested. Which survivor count (dose: 0.2 mg/kg/injection, vehicle: saline) did it give?
**A.** 10 of 10

**Q.** What about the survivor count (dose: 0.4 mg/kg/injection, vehicle: saline) of the same compound?
**A.** 6 of 10 and 10 of 10

**Q.** Which survivor count (dose: 400.0 mg/kg/injection, vehicle: saline) does the source give for `Nc1nc(F)nc2c1ncn2C1OC(COP(=O)(O)O)C(O)C1O` (configuration not stated) here?
**A.** 9 of 10

**Q.** With `COc1cc(C2c3cc4c(cc3C(O)C(CO)C2CO)OCO4)cc(OC)c1OC` (configuration not stated) as the compound, how does the survivor count [6] read?
**A.** 10 of 10

**Q.** And the survivor count [15]?
**A.** 1 of 10

**Q.** For `Cc1c(N)nc([C@H](CC(N)=O)NC[C@H](N)C(N)=O)nc1C(=O)N[C@H](C(=O)N[C@H](C)[C@@H](O)CC(=O)N[C@H](C(=O)NC(O[C@@H]1O[C@@H](C)[C@@H](N)[C@@H](O)[C@H]1O)C(O)c1nc(-c2nc(C(=O)NCCCCN)cs2)cs1)[C@@H](C)O)[C@@H](O[C@@H]1O[C@@H](CO)[C@@H](O)[C@H](O)[C@@H]1O[C@H]1O[C@H](CO)[C@@H](O)[C@H](OC(N)=O)[C@@H]1O)c1c[nH]cn1` (some centres not stated), which T/C [16] is on record?
**A.** 138 % of control

**Q.** What about the survivor count [4] of the same compound?
**A.** 10 of 10

**Q.** What about the survivor count (dose: 32.0 mg/kg/injection, vehicle: saline) of the same compound?
**A.** 10 of 10

**Q.** And the survivor count (dose: 64.0 mg/kg/injection, vehicle: saline)?
**A.** 7 of 10

**Q.** With `COc1ccc2[nH]c3c(c2c1)CCNC3CC(C)CCC=C(C)C` (configuration not stated) as the compound, how does the survivor count [6] read?
**A.** 5 of 10

**Q.** With `O=NN(CCCl)C(=O)NCCO` as the compound, how does the T/C (dose: 1.56 mg/kg/injection, vehicle: water) read?
**A.** 129, 134, 143 % of control [9 of 10 alive]

**Q.** And the T/C [14]?
**A.** 128 % of control

**Q.** What about the T/C [17] of the same compound?
**A.** 141 % of control

**Q.** What about the survivor count [17] of the same compound?
**A.** 9 of 10

**Q.** And the survivor count [8]?
**A.** 7 of 10 and 10 of 10

**Q.** And the survivor count [9]?
**A.** 9 of 10

**Q.** `N=c1ccc2nc3ccc(N)cc3sc-2c1` was tested. Which survivor count [9] did it give?
**A.** 4 of 10

**Q.** What about the survivor count [10] of the same compound?
**A.** 0 of 10

**Q.** Which survivor count [18] does the source give for `COc1cc(Cl)ccc1C` here?
**A.** 3 of 10

**Q.** Which survivor count [7] does the source give for `O=C(Nc1cccc(Cl)c1)ON1C(=O)C2C(C1=O)C1(Cl)C(Cl)C(Cl)C2(Cl)C1(Cl)Cl` (configuration not stated) here?
**A.** 6 of 10

**Q.** What about the survivor count [18] of the same compound?
**A.** 6 of 10

**Q.** `N#C[Se-].c1ccc([Te+](c2ccccc2)c2ccccc2)cc1` was tested. Which survivor count [1] did it give?
**A.** 0 of 10

**Q.** `Cc1c(O)ccc(=O)n1O` was tested. Which survivor count (dose: 256.0 mg/kg/injection, vehicle: saline with Tween-80) did it give?
**A.** 7 of 10

**Q.** What about the survivor count (dose: 512.0 mg/kg/injection, vehicle: saline with Tween-80) of the same compound?
**A.** 0 of 10

**Q.** Which survivor count [13] does the source give for `ClCCCN1CCCCC1CCl` (configuration not stated) here?
**A.** 10 of 10

**Q.** `COc1cccc2c1C(=O)c1c(O)c3c(c(O)c1C2=O)C[C@@](O)(C(C)=O)C[C@@H]3OC1CC(N)C(O)C(C)O1` (some centres not stated) was tested. Which T/C (dose: 0.13 mg/kg/injection, vehicle: saline) did it give?
**A.** 132 % of control

**Q.** What about the survivor count (dose: 2.0 mg/kg/injection, vehicle: saline) of the same compound?
**A.** 9 of 9

**Q.** And the survivor count [16]?
**A.** 10 of 10

**Q.** What about the survivor count [3] of the same compound?
**A.** 8 of 10

**Q.** For `C#C[C@]1(O)CC[C@H]2[C@@H]3CCc4cc(O)ccc4[C@H]3CC[C@@]21C`, which T/C [5] is on record?
**A.** 129 % of control

**Q.** What about the T/C [6] of the same compound?
**A.** 129 % of control

**Q.** What about the T/C [15] of the same compound?
**A.** 139 % of control

**Q.** And the survivor count [15]?
**A.** 5 of 10

**Q.** And the survivor count (dose: 800.0 mg/kg/injection, vehicle: Klucel (hydroxypropylcellulose) (HPC))?
**A.** 0 of 10

**Q.** `Oc1c(Cl)cc(Cl)cc1C=NCCSc1ccc(Cl)cc1` was tested. Which survivor count [15] did it give?
**A.** 6 of 10
